Common to all, as to assay: cleaved PARP positive nuclei fraction relative to DMSO control; melanoma cells; higher = more apoptosis
Common to all, as to conditions: library dose: low library concentration; 72 h

Assay [1] has as its system WM115.
For assay [2], the system named is WM1716.
In assay [3] the test system is WM1745.
Assay [4] relates to WM3526.
Assay [5] relates to WM3619.
In assay [6] the test system is WM451Lu.

This is one part of the list. Repeats are few or missing, and single values can be far off.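 The apoptosis fraction was the count of cleaved-PARP antibody-stained nuclei relative to all DNA-stained nuclei, imaged in 1,536-well plates. Screening doses were set so most cells survived, and baseline and induced cleaved-PARP levels vary greatly across cell lines.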

Consider `CC1(C)CCC(c2ccc(Cl)cc2)=C(CN2CCN(c3ccc(C(=O)NS(=O)(=O)c4ccc(N[C@H](CCN5CCOCC5)CSc5ccccc5)c(S(=O)(=O)C(F)(F)F)c4)cc3)CC2)C1` + COC(=O)c1sccc1S(=O)(=O)Nc1ccc(Nc2ccccc2)cc1OC [GSK0660] (first compound 0.4 µM, partner dose 1 µM), for which the “cleaved PARP positive nuclei fraction” value in assay [1] was determined as 128%; in assay [2] it was 139%; in assay [3], 900%; in assay [4], 71%; in assay [5], 150%; in assay [6], 113%.

In the case of `CC(=O)O[C@@]12CO[C@@H]1C[C@H](O)[C@@]1(C)C(=O)[C@H](O)C3=C(C)[C@@H](OC(=O)[C@H](O)[C@@H](NC(=O)OC(C)(C)C)c4ccccc4)C[C@@](O)([C@@H](OC(=O)c4ccccc4)[C@H]21)C3(C)C` [Docetaxel] + O=C(O)C(=O)Nc1sc2c(c1C(=O)O)CCNC2 [TCS401] (first compound 0.0001 µM, partner dose 1.66667 µM), the “cleaved PARP positive nuclei fraction” value in assay [1] came out at 335%; in assay [2], 332%; in assay [3], 189%; in assay [4] it was 196%; in assay [5], 147%; in assay [6], 232%.

For the molecule `Cn1cnc2c(F)c(Nc3ccc(Br)cc3Cl)c(C(=O)NOCCO)cc21` [selumetinib] + CC(C)CCN1c2nc(Nc3cc(F)c(O)c(F)c3)ncc2N(C)C(=O)C1C [BID1870] (first compound 0.015 µM, partner dose 0.2 µM), the “cleaved PARP positive nuclei fraction” value turned out to be 99.6% in assay [1]; 113% in assay [2]; 107% in assay [3]; 80.7% in assay [4]; 140% in assay [5]; 73.9% in assay [6].

Turning to `CN(c1ncccc1CNc1nc(Nc2ccc3c(c2)CC(=O)N3)ncc1C(F)(F)F)S(C)(=O)=O` + COC(=O)c1sccc1S(=O)(=O)Nc1ccc(Nc2ccccc2)cc1OC [GSK0660] (first compound 0.08 µM, partner dose 1 µM), the “cleaved PARP positive nuclei fraction” value in assay [1] is 315%; in assay [2], 103%; in assay [3], 116%; in assay [4], 72.8%; in assay [5], 86.2%; in assay [6], 68%.

Regarding `C[C@]1(O)C[C@@H](c2nc(-c3ccc4ccc(-c5ccccc5)nc4c3)c3c(N)nccn32)C1` + CCCS(=O)(=O)Nc1ccc(F)c(C(=O)c2c[nH]c3ncc(Cl)cc23)c1F [PLX4720] (first compound 0.4 µM, partner dose 0.08 µM), the “cleaved PARP positive nuclei fraction” value in assay [1] was determined as 172%; in assay [2], 59.2%; in assay [3] it was 134%; in assay [4], 129%; in assay [5], 118%; in assay [6], 126%.

As for `COc1ccc(C2=N[C@@H](c3ccc(Cl)cc3)[C@@H](c3ccc(Cl)cc3)N2C(=O)N2CCNC(=O)C2)c(OC(C)C)c1` [Nutlin-3] + CC1(C)NC(=O)N(c2ccc([N+](=O)[O-])c(C(F)(F)F)c2)C1=O [nilutamide] (first compound 0.1 µM, partner dose 1 µM), the “cleaved PARP positive nuclei fraction” value in assay [1] came to 158%; in assay [2] it was 103%; in assay [3], 235%; in assay [4] it was 55.1%; in assay [5], 125%; in assay [6], 53.6%.

Regarding `CC1(C)CCC(c2ccc(Cl)cc2)=C(CN2CCN(c3ccc(C(=O)NS(=O)(=O)c4ccc(N[C@H](CCN5CCOCC5)CSc5ccccc5)c(S(=O)(=O)C(F)(F)F)c4)cc3)CC2)C1` + O=C(CCCCCCC(=O)Nc1ccccc1)NO [vorinostat] (first compound 0.4 µM, partner dose 0.08 µM), the “cleaved PARP positive nuclei fraction” value in assay [1] stood at 146%; in assay [2], 200%; in assay [3], 759%; in assay [4], 61.6%; in assay [5] it was 78.8%; in assay [6], 36.1%.

`NC1(c2ccc(-c3nc4ccn5c(=O)[nH]nc5c4cc3-c3ccccc3)cc2)CCC1` + O=C(Nc1cccc(Cl)c1)Nc1ncc(CCNc2ncnc3ccsc23)s1 [SNS314] (first compound 0.4 µM, partner dose 0.0008 µM): the “cleaved PARP positive nuclei fraction” value in assay [1] came to 453%; in assay [2], 67.1%; in assay [3], 96.7%; in assay [4], 144%; in assay [5] it was 93.4%; in assay [6] it was 59.3%.

For `NC(=O)c1ccc(N(C(N)=O)c2c(F)cccc2F)nc1-c1ccc(F)cc1F` + O=C(Nc1cccc(Cl)c1)Nc1ncc(CCNc2ncnc3ccsc23)s1 [SNS314] (first compound 0.4 µM, partner dose 0.0008 µM), the “cleaved PARP positive nuclei fraction” value in assay [1] stood at 134%; in assay [2] it was 67.5%; in assay [3] it was 99.9%; in assay [4], 158%; in assay [5] it was 89.7%; in assay [6], 52.1%.

On to `CC(=O)O[C@@]12CO[C@@H]1C[C@H](O)[C@@]1(C)C(=O)[C@H](O)C3=C(C)[C@@H](OC(=O)[C@H](O)[C@@H](NC(=O)OC(C)(C)C)c4ccccc4)C[C@@](O)([C@@H](OC(=O)c4ccccc4)[C@H]21)C3(C)C` [Docetaxel] + CO[C@@H]1[C@H](N(C)C(=O)c2ccccc2)C[C@H]2O[C@]1(C)n1c3ccccc3c3c4c(c5c6ccccc6n2c5c31)C(=O)NC4 [Midostaurin] (first compound 0.0001 µM, partner dose 0.08 µM), for which the “cleaved PARP positive nuclei fraction” value in assay [1] came to 581%; in assay [2], 1180%; in assay [3], 272%; in assay [4] it was 180%; in assay [5] it was 148%; in assay [6], 316%.

For `CCN(CC)CCNC(=O)c1c(C)[nH]c(/C=C2\C(=O)Nc3ccc(F)cc32)c1C` [sunitinib] + Cn1c(=O)n(-c2ccc(C(C)(C)C#N)cc2)c2c3cc(-c4cnc5ccccc5c4)ccc3ncc21 [NVP-BEZ235] (first compound 0.4 µM, partner dose 0.004 µM), the “cleaved PARP positive nuclei fraction” value stood at 198% in assay [1]; 27.8% in assay [2]; 108% in assay [3]; 56.9% in assay [4]; 69.2% in assay [5]; 88.5% in assay [6].

Turning to `C[C@]1(O)C[C@@H](c2nc(-c3ccc4ccc(-c5ccccc5)nc4c3)c3c(N)nccn32)C1` + CN(NC(=O)CC(=O)NN(C)C(=S)c1ccccc1)C(=S)c1ccccc1 [STA4783] (first compound 0.4 µM, partner dose 0.006 µM), the “cleaved PARP positive nuclei fraction” value in assay [1] worked out at 173%; in assay [2], 197%; in assay [3] it was 1780%; in assay [4] it was 65.9%; in assay [5], 312%; in assay [6], 93.1%.

These data come from the supplement of paper PMC4604168 (melanoma cell lines).
